Laboratory results as given in patent US20120039878A1.
Results are given in words; binding and its absence hold for the method and conditions named.

Target: Vλ6 monomer
Assay: SPR (BIAcore), Vλ6 monomer immobilized on a chip

- binding: no binding
B1: murine monoclonal antibody 7D8 (ATCC Accession Number PTA-9468) (antibody, mouse IgG2b, V domains shown)
VH: EVQLVESGGRLVQPKGSLKLSCAASGFTFNTYAMYWIRQAPGKGLEWVARIRSKSNNYAIYYADSVKDRFTIFRDDSQSMLYLQMNNLKTEDTAMYYCVRPYSDSFAYWGQGTLVTVSA
VL: DVVMTQTPLSLPVSLGDQASISCRSSLSLVHSTGNTYLHWYLQKPGQSPKLLIYKVSNRFSGVPDRFSGSGSGTYFTLKISRVEAEDLGVYFCSQSTHVPFTFGGGTKLEIK
